Source: PubChem BioAssay AID1053208 (Peter MacCallum Cancer Centre, 2014)

Screen: 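Genes whose silencing cuts survival of bone tumour cells only with doxorubicin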 (primary screen)
Cell system: mouse osteosarcoma cells, early-passage culture from an engineered mouse model of fibroblastic bone tumour
Reagents: siRNA pool against mouse genes, 40 nM
Duration: about 120 h (48 h before drug, then 72 h with drug)
Treatment: doxorubicin 100 nM for 72 h, roughly 30-40% inhibitory dose
Measured: 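Luminescent ATP signal taken as viability with or without 100 nM doxorubicin for 72 h; mean of two wells set against non-targeting siRNA and turned into robust z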
Direction: viability z-score with doxorubicin: higher = more viable cells under doxorubicin; viability z-score without drug: higher = more viable cells with knock-down alone
Hit rule: 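Called active if knock-down leaves viability unchanged without drug (z within -2 to 2) but lowers it with doxorubicin (z at or under -2)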
In all, the deposit lists about 17,000 reagents; shown is a part drawn at random. 788 of all reagents (4.7%) were called active. 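Calls rest on z-score classes alone; an extra cut-off of viability at most 70% of control was not applied to them.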 Unmarked entries are inactive. Not all columns of the deposit are shown.

After knock-down of Shq1 (GeneID 72171), the record shows combined z-score class no change with or without drug; viability z-score with doxorubicin 1.35; viability z-score without drug -0.17. Ly6i (GeneID 57248) scored combined z-score class no change with or without drug; viability z-score with doxorubicin 1.46; viability z-score without drug 1.01. With knock-down of Zbtb35 (GeneID 72465), the record shows combined z-score class no change with or without drug; viability z-score with doxorubicin 1.12; viability z-score without drug 0.17. Against Eps8l2 (GeneID 98845), the values are combined z-score class no change with or without drug; viability z-score with doxorubicin -1.91; viability z-score without drug -0.17. After knock-down of Or10ak11 (GeneID 258265), the screen gave combined z-score class no change with or without drug; viability z-score with doxorubicin -0.22; viability z-score without drug 0.51. Knock-down of Rtkn (GeneID 20166) gave: combined z-score class high cell count without drug only; viability z-score with doxorubicin 1.57; viability z-score without drug 2.36.

After knock-down of Syt5 (GeneID 53420) the results were combined z-score class low cell count with doxorubicin only (active); viability z-score with doxorubicin -2.02; viability z-score without drug -1.69. After knock-down of Slc26a8 (GeneID 224661), the screen gave combined z-score class no change with or without drug; viability z-score with doxorubicin 1.12; viability z-score without drug 1.52. For Pitpnb (GeneID 56305), the values are combined z-score class no change with or without drug; viability z-score with doxorubicin 1.57; viability z-score without drug 0.34. For Letm1 (GeneID 56384), the values are combined z-score class no change with or without drug; viability z-score with doxorubicin -1.35; viability z-score without drug -0.84. Depletion of Tsg101 (GeneID 22088) came out at: combined z-score class no change with or without drug; viability z-score with doxorubicin -1.12; viability z-score without drug 1.52. With knock-down of Cyb5b (GeneID 66427) the results were combined z-score class no change with or without drug; viability z-score with doxorubicin -1.57; viability z-score without drug 0.17.

With knock-down of Or7g18 (GeneID 258559), the screen gave combined z-score class no change with or without drug; viability z-score with doxorubicin 1.12; viability z-score without drug 0.17. Psenen (GeneID 66340) gave combined z-score class high cell count without drug only; viability z-score with doxorubicin 0.79; viability z-score without drug 2.36. Pkd2l2 (GeneID 53871) showed combined z-score class no change with or without drug; viability z-score with doxorubicin 0.67; viability z-score without drug 0. Oas3 (GeneID 246727) gave combined z-score class no change with or without drug; viability z-score with doxorubicin 0.9; viability z-score without drug 0.67.

4 neighbouring records already listed:
Zbtb35 (GeneID 72465) | combined z-score class = no change with or without drug; viability z-score with doxorubicin = 1.12; viability z-score without drug = 0.17
Eps8l2 (GeneID 98845) | combined z-score class = no change with or without drug; viability z-score with doxorubicin = -1.91; viability z-score without drug = -0.17
Or10ak11 (GeneID 258265) | combined z-score class = no change with or without drug; viability z-score with doxorubicin = -0.22; viability z-score without drug = 0.51
Rtkn (GeneID 20166) | combined z-score class = high cell count without drug only; viability z-score with doxorubicin = 1.57; viability z-score without drug = 2.36

Next reagents:
Against Klhl13 (GeneID 67455), the values are combined z-score class no change with or without drug; viability z-score with doxorubicin 1.12; viability z-score without drug 1.52. Cysltr2 (GeneID 70086) showed combined z-score class no change with or without drug; viability z-score with doxorubicin -0.34; viability z-score without drug 1.01. Ralyl (GeneID 76897) showed combined z-score class high cell count with and without drug; viability z-score with doxorubicin 2.02; viability z-score without drug 2.36. Silencing of Mgrn1 (GeneID 17237) gave: combined z-score class no change with or without drug; viability z-score with doxorubicin -0.9; viability z-score without drug -0.51. Against Inhba (GeneID 16323) the deposit lists combined z-score class no change with or without drug; viability z-score with doxorubicin 0.67; viability z-score without drug 0.67. Against Numb (GeneID 18222), the values are combined z-score class no change with or without drug; viability z-score with doxorubicin 0; viability z-score without drug 0.

Sytl2 (GeneID 83671) gave combined z-score class no change with or without drug; viability z-score with doxorubicin 0.67; viability z-score without drug 0.51. Knock-down of Bloc1s3 (GeneID 232946) came out at: combined z-score class high cell count without drug only; viability z-score with doxorubicin 0.9; viability z-score without drug 2.53. Depletion of Pbk (GeneID 52033) resulted in: combined z-score class no change with or without drug; viability z-score with doxorubicin 1.8; viability z-score without drug 0.34. With knock-down of D330005C11Rik (GeneID 319398), the record shows combined z-score class no change with or without drug; viability z-score with doxorubicin -0.67; viability z-score without drug 0.17. Depletion of Rph3a (GeneID 19894) resulted in: combined z-score class no change with or without drug; viability z-score with doxorubicin 0.79; viability z-score without drug 1.52. With knock-down of Nucb1 (GeneID 18220) the results were combined z-score class no change with or without drug; viability z-score with doxorubicin 1.01; viability z-score without drug -0.67.
